Here are results for two sequences from paper PMC10153752, “Exo1 protects DNA nicks from ligation to promote crossover formation during meiosis”.

The target in series [1] is T1, exo1-D173A,G236D (Saccharomyces cerevisiae) (UniProt P39875).
T1 sequence (looked up, limits assumed): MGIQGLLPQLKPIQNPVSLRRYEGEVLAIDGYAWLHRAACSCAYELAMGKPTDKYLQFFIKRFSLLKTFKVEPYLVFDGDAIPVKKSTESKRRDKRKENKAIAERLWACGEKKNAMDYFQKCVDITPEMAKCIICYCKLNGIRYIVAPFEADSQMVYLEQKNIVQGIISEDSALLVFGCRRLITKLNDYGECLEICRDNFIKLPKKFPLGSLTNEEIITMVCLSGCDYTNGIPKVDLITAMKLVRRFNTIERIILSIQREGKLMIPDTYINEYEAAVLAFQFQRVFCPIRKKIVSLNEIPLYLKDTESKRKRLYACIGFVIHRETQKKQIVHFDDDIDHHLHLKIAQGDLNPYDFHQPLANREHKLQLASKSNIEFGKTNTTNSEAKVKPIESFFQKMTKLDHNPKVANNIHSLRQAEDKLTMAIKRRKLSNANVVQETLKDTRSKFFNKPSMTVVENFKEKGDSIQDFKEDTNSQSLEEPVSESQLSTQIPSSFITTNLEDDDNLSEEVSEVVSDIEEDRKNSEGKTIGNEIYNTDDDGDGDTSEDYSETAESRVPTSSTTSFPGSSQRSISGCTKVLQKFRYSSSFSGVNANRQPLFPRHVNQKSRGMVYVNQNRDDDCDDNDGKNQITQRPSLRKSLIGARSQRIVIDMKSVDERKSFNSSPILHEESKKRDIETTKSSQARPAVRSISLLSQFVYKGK
The series can be described thus: filter binding. Conditions: no added metal, 0.01 mM EDTA, very weak binding, 15 nM DNA, 35 mM NaCl, 20 mM Tris pH 7.5, 0.04 mg/ml BSA, 0.1 mM DTT, 60 ul, 10 min at 30 C, KOH-treated nitrocellulose filter binding, recombinant protein, protein details: FLAG, label: 5'-32P on AO3144 (8% labeled).

For series [2], the target named is T2, exo1-D173A (Saccharomyces cerevisiae) (UniProt P39875).
T2 sequence (looked up, limits assumed): T1 sequence (looked up, limits assumed) with D236G
Nature of the series: filter binding. The note with it: no added metal, 0.01 mM EDTA, 15 nM DNA, 35 mM NaCl, 20 mM Tris pH 7.5, 0.04 mg/ml BSA, 0.1 mM DTT, 60 ul, 10 min at 30 C, KOH-treated nitrocellulose filter binding, recombinant protein, protein details: FLAG, label: 5'-32P on AO3144 (8% labeled).

Positions count from the first letter of the chain named. Construct, isoform or probe ends are uncertain for at least one entry. Weaker means in comparison with the reference protein, sequence or condition of that experiment. For part of these data: At least one verdict rests on a figure or table, not on a statement of the authors. Where a protein sequence is shown, tags need not be part of it.

Regarding “ACAGCTACCGAATTCTGACTTGCTAGGACATCTTTGCCCACGTTGACCC / GGGTCAACGTGGGCAAAGATGTCCTAGCAAGTCAGAATTCGGTAGCGTG [homoduplex (AO3878 annealed to AO3144)]”, the binding result in series [1] and in series [2] was “binds more weakly” in each case. With “ACAGCTACCGAATTCTGACTTGCTAGGACATCTTTGCCCACGTTGACCC / TCGATAGTCTCTAGATAGCATGTCCTAGCAAGTCAGAATTCGGTAGCGTG / GGGTCAACGTGGGCAAAG [19 nt 5' flap substrate (AO3145 + AO3940 annealed to AO3144)]”, in series [1], the binding result was “binds more weakly”.
